{"sequences": {"note": "Chains of the proteins cited; added tags and fusions are not shown. Lines headed by an entry give the natural chain unless they say otherwise; changes in a name come on top.", "UniProt O75909": "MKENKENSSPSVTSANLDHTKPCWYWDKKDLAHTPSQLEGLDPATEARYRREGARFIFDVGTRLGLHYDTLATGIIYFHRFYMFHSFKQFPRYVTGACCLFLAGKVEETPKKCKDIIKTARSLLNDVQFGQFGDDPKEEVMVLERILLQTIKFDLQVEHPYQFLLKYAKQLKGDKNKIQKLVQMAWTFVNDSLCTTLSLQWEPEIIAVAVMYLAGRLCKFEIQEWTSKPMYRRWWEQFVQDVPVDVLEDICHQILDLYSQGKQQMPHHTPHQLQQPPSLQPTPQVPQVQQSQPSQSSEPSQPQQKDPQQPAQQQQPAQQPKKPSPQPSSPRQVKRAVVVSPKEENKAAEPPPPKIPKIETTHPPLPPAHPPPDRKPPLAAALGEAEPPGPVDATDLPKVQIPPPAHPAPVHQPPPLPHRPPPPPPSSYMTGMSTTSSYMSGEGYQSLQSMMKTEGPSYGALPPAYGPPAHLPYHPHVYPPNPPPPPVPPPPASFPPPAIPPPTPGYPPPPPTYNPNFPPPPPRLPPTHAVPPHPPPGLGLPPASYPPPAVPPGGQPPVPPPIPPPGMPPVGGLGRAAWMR", "UniProt O75528": "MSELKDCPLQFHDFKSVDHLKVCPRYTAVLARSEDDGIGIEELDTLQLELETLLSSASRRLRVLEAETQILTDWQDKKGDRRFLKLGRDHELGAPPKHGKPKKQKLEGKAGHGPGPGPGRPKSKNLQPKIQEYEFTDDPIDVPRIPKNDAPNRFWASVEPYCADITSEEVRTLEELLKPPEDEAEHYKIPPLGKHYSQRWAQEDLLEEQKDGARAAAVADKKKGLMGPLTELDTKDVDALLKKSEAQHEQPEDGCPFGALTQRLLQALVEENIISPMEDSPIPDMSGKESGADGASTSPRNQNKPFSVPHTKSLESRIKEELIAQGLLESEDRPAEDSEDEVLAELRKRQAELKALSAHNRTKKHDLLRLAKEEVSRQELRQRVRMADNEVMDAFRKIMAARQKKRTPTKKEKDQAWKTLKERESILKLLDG", "UniProt O75817": "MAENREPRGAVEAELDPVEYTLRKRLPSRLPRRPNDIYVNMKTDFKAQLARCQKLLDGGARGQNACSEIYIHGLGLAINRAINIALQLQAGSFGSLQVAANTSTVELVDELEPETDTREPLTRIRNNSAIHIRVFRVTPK", "UniProt O95365": "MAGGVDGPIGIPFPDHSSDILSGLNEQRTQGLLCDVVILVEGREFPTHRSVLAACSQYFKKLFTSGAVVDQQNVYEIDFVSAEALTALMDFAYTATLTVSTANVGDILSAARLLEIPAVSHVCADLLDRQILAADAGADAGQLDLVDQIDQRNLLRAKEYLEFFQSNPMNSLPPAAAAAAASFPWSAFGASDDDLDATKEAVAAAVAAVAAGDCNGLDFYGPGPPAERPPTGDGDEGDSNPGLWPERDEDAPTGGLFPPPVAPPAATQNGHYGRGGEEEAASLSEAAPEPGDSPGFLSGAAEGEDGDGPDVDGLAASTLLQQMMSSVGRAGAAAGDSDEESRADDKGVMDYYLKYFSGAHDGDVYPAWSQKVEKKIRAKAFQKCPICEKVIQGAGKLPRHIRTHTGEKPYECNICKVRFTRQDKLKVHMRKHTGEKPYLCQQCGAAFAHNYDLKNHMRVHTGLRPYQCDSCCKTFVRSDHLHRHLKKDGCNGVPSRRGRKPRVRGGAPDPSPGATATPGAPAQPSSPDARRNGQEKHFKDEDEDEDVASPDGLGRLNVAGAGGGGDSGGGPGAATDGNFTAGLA", "UniProt O75448": "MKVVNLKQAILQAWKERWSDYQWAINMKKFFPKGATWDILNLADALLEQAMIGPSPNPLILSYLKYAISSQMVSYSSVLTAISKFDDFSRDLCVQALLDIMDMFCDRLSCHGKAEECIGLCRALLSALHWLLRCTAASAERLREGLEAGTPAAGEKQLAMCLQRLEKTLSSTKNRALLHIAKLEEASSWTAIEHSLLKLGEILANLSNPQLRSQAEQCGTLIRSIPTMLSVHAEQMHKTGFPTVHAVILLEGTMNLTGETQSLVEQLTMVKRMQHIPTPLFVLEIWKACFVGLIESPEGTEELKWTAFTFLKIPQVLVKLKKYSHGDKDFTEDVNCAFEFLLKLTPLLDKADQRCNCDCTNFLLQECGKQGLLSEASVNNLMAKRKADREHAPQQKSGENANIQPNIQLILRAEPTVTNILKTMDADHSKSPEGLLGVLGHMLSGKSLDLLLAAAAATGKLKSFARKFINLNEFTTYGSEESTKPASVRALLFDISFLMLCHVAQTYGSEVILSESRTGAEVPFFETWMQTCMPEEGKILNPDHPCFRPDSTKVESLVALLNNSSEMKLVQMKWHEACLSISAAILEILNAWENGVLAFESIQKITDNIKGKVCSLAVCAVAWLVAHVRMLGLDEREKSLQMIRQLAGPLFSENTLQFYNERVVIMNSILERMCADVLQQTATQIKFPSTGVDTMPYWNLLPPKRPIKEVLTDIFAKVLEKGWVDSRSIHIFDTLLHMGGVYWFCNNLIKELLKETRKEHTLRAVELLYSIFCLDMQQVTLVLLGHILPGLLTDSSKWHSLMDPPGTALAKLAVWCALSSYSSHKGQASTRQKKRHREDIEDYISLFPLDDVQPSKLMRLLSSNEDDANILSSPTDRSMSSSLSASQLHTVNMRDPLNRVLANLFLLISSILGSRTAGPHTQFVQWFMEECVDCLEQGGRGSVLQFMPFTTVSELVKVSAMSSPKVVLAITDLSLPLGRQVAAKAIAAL", "UniProt O75915": "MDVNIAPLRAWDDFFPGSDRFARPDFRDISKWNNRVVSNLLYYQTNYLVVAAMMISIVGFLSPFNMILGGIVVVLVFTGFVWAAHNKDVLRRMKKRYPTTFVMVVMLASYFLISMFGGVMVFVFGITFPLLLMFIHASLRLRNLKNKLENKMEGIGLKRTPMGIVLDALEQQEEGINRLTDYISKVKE", "UniProt O94761": "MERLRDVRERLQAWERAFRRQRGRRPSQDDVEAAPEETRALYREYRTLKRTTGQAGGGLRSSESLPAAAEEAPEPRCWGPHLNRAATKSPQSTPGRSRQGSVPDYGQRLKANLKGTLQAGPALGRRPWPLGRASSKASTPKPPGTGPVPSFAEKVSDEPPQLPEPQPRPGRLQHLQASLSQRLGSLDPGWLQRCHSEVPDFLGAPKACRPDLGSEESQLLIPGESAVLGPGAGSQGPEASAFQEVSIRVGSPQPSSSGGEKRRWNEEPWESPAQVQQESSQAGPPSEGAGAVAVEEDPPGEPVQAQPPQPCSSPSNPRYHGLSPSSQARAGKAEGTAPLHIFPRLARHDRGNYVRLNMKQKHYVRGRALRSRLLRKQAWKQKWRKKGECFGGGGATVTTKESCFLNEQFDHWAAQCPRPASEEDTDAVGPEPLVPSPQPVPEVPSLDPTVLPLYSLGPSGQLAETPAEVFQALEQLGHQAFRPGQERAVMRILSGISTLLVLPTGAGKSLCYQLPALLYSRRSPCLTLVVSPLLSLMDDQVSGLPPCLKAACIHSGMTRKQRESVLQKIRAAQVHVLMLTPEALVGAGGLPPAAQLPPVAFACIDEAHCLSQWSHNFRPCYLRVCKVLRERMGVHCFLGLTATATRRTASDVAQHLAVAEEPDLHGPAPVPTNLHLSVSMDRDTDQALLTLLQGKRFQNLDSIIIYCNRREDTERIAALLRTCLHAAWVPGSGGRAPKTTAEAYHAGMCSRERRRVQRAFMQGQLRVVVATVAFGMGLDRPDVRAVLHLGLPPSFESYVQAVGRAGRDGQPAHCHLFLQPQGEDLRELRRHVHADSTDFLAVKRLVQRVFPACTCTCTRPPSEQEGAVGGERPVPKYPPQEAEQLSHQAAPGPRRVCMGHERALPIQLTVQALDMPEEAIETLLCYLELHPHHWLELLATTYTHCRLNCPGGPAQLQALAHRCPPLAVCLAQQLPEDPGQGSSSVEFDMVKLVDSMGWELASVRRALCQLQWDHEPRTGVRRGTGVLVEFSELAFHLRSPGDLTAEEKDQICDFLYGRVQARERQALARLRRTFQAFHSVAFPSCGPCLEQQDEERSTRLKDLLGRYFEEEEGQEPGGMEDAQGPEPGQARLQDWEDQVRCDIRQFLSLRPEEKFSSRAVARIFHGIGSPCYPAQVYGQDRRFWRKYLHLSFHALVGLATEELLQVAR", "UniProt O95801": "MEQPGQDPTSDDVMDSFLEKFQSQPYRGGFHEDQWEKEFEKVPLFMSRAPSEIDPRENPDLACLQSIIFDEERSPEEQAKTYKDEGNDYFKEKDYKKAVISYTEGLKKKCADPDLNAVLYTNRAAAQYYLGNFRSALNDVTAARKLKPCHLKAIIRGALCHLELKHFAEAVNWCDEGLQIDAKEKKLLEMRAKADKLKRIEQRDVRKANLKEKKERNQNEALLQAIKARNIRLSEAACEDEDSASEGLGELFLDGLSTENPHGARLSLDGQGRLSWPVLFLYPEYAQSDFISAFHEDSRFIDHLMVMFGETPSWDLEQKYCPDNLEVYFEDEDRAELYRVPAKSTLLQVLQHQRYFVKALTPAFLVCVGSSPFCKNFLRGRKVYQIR", "UniProt O95248": "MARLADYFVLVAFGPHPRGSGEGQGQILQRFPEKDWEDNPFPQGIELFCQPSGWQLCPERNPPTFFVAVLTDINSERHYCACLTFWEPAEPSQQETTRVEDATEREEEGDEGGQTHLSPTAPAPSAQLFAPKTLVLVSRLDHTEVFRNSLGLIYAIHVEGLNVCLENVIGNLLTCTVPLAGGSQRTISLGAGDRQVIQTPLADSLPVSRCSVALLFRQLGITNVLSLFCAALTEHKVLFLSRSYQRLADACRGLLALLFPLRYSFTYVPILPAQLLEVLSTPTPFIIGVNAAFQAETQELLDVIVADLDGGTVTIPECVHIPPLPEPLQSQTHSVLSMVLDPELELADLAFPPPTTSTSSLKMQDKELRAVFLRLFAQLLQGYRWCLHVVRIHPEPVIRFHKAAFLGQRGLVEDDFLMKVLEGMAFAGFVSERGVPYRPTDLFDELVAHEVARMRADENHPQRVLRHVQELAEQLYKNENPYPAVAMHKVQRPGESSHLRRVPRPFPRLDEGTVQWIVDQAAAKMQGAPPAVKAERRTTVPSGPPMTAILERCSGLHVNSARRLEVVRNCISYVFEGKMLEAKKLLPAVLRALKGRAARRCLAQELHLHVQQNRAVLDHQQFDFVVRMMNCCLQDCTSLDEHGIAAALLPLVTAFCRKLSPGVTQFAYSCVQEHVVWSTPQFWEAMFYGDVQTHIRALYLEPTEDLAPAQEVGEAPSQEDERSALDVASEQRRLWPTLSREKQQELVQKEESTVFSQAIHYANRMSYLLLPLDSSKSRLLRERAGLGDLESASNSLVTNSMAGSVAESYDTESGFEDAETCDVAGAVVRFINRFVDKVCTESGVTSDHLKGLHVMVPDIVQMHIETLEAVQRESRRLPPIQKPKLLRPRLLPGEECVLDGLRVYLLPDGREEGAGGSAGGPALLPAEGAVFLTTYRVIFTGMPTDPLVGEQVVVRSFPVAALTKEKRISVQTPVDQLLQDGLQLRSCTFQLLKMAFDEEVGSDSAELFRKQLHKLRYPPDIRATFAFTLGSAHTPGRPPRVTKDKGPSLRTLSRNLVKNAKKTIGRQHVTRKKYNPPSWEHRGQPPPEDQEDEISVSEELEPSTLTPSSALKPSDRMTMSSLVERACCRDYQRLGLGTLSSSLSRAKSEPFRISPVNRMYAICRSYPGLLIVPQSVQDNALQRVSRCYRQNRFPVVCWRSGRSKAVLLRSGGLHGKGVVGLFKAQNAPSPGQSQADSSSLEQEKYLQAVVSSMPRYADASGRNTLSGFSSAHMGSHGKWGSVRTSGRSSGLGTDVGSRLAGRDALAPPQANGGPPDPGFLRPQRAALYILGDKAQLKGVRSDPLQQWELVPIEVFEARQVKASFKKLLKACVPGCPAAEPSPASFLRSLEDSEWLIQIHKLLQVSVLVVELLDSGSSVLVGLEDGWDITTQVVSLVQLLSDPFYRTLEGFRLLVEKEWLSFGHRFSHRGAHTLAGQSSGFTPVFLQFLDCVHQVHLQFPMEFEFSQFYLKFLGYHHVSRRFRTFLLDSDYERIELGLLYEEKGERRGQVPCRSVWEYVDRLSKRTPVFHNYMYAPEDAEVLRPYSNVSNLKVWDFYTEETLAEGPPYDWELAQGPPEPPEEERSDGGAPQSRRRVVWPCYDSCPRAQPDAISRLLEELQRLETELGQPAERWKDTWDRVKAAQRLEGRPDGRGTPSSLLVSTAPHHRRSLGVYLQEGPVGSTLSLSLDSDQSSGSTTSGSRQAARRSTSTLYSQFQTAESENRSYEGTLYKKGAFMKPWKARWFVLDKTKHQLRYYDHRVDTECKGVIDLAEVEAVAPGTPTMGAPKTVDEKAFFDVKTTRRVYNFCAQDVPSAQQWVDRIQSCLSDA", "UniProt O95989": "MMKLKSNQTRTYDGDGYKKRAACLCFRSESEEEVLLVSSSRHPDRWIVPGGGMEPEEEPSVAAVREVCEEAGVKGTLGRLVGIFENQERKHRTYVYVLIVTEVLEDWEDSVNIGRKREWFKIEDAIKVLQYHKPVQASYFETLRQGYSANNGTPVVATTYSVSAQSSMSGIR"}, "source": "the supplement of paper PMC12819154", "about": "“High-throughput peptide-centric local stability assay extends protein–ligand identification to membrane proteins, tissues and bacteria” (Nature Structural & Molecular Biology, 2025)", "note": "This is one part of the list. Small differences around the control level are noise.", "data": [{"compound": "Cc1nc(Nc2ncc(C(=O)Nc3c(C)cccc3Cl)s2)cc(N2CCN(CCO)CC2)n1 [dasatinib]", "assay": "log2 fold change of tryptic peptide abundance, ligand vs vehicle (limited proteolysis) (log2 ratio); higher = more trypsin-susceptible (destabilized)", "details": "ligand concentration: 5 uM; sample: K562 cleared lysate", "values": [{"target": "CCNK (peptide sequence: AAEPPPPKIPK, peptide start residue: 347) (UniProt O75909)", "log2 fold change": -0.207}, {"target": "UniProt O75528 (peptide sequence: ERESILK, peptide start residue: 422)", "log2 fold change": 0.327}, {"target": "UniProt O75934 (peptide sequence: VYNENLVHMIEHAQK, peptide start residue: 137)", "log2 fold change": -0.105}, {"target": "POP7 (peptide sequence: AENREPR, peptide start residue: 2) (UniProt O75817)", "log2 fold change": -0.0565}, {"target": "UniProt O94927 (peptide sequence: TVGVLVSQR, peptide start residue: 300)", "log2 fold change": -0.279}, {"target": "UniProt O94768 (peptide sequence: AEILHEIAVLELAK, peptide start residue: 75)", "log2 fold change": 0.148}, {"target": "RAD17 (peptide sequence: IVTIEANK, peptide start residue: 302) (UniProt O75943)", "log2 fold change": -0.141}, {"target": "LDHA (peptide sequence: DYNVTANSK, peptide start residue: 82) (UniProt P00338)", "log2 fold change": -0.153}, {"target": "CDC123 (peptide sequence: SVILPLPQNVK, peptide start residue: 25) (UniProt O75794)", "log2 fold change": -0.14}, {"target": "PCNT (peptide sequence: DVPSGHTR, peptide start residue: 3254) (UniProt O95613)", "log2 fold change": -0.166}, {"target": "ZBTB7A (peptide sequence: HFKDEDEDEDVASPDGLGR, peptide start residue: 537) (UniProt O95365)", "log2 fold change": 0.488}, {"target": "MED24 (peptide sequence: AEPTVTNILK, peptide start residue: 413) (UniProt O75448)", "log2 fold change": -0.0486}, {"target": "ARL6IP5 (peptide sequence: MEGIGLKR, peptide start residue: 152) (UniProt O75915)", "log2 fold change": -0.545}, {"target": "ERLIN2 (peptide sequence: VAQVAEITYGQK, peptide start residue: 221) (UniProt O94905)", "log2 fold change": 0.222}, {"target": "ZFAND5 (peptide sequence: TNGMCSVCYK, peptide start residue: 26) (UniProt O76080)", "log2 fold change": 0.263}, {"target": "RECQL4 (peptide sequence: GRRPSQDDVEAAPEETR, peptide start residue: 23) (UniProt O94761)", "log2 fold change": 0.352}, {"target": "SNCG (peptide sequence: EQANAVSEAVVSSVNTVATK, peptide start residue: 61) (UniProt O76070)", "log2 fold change": 0.7}, {"target": "TTC4 (peptide sequence: KCADPDLNAVLYTNR, peptide start residue: 109) (UniProt O95801)", "log2 fold change": 0.0988}, {"target": "SBF1 (peptide sequence: IHPEPVIR, peptide start residue: 392) (UniProt O95248)", "log2 fold change": -0.207}, {"target": "UniProt O95198 (peptide sequence: VEEEALVK, peptide start residue: 259)", "log2 fold change": 0.457}, {"target": "ACSL3 (peptide sequence: VGAPLVCCEIK, peptide start residue: 497) (UniProt O95573)", "log2 fold change": 0.265}, {"target": "RECQL5 (peptide sequence: PSAKPSVVAEVK, peptide start residue: 873) (UniProt O94762)", "log2 fold change": 0.647}, {"target": "NUDT3 (peptide sequence: TYDGDGYK, peptide start residue: 11) (UniProt O95989)", "log2 fold change": 0.103}, {"target": "ASMTL (peptide sequence: VDASACGMER, peptide start residue: 328) (UniProt O95671)", "log2 fold change": -0.378}, {"target": "ACTL6A (peptide sequence: ENMEAISPLK, peptide start residue: 80) (UniProt O96019)", "log2 fold change": -0.186}, {"target": "BAG4 (peptide sequence: SGYGPSDGPSYGR, peptide start residue: 7) (UniProt O95429)", "log2 fold change": -0.116}, {"target": "UniProt O96015 (peptide sequence: FSNNNESAAK, peptide start residue: 46)", "log2 fold change": 0.31}]}]}
